Data as given in PubChem BioAssay AID504764 (Drosophila RNAi Screening Center, 2011)
Screen: 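Genes whose knock-down alters Notch-dependent transcription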 (primary screen). Cells: Drosophila Kc167 cells. Reagent: long dsRNA against Drosophila genes. Time to read-out: about 5 days (4 days dsRNA, then 24 h after transfection). Treatment: transfection of constitutively active membrane-tethered Notch lacking the extracellular domain, read 24 h later. Measured: 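Light from a Notch-responsive E(spl)m3 luciferase reporter under active Notch, with control-promoter and no-Notch reporter wells to normalise; raw counts from paired wells a and b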. Reading the numbers: induced reporter light, run 1, well a and induced reporter light, run 1, well b: higher = more light from the Notch target reporter with active Notch; control promoter light, run 1, well a and control promoter light, run 1, well b: higher = more light from the viral control promoter (cell number, transfection, viability); uninduced reporter light, run 1, well a: higher = more light from the Notch target reporter without active Notch. Call rule: 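Wells with low control signal or poorly matching duplicates excluded; duplicates averaged; per source plate, z beyond ±2 for induced/control log2 ratio or beyond ±1.8 for induced/uninduced marks a hit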. Meaning of the calls: active = modifier hit (raised or lowered Notch signal); inactive = not a hit.
The screen tested about 22,000 reagents; below is a random part of those with a known target gene and a result. In the full data, 403 (1.9%) were called active. 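Unnormalised raw counts per well; ratio z-scores behind the hit calls and whether each hit raises or lowers signal are not deposited.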 Entries without a mark were called inactive. Names joined by + are all predicted targets of the reagent. No sequences are given here. Not given: the amount of reagent.

For CG14441 [DRSC17934], what does the deposit list?
induced reporter light, run 1, well a: 10510; induced reporter light, run 1, well b: 15240; control promoter light, run 1, well a: 24940; control promoter light, run 1, well b: 20650; uninduced reporter light, run 1, well a: 3892

Which result is listed for CG9380 [DRSC04549]?
induced reporter light, run 1, well a: 2.19e5; induced reporter light, run 1, well b: 2.20e5; control promoter light, run 1, well a: 2.22e5; control promoter light, run 1, well b: 2.46e5; uninduced reporter light, run 1, well a: 17195

With Or71a [DRSC11244], how do the results read?
induced reporter light, run 1, well a: 1.96e5; induced reporter light, run 1, well b: 1.62e5; control promoter light, run 1, well a: 2.38e5; control promoter light, run 1, well b: 1.68e5; uninduced reporter light, run 1, well a: 7070

For CG18210 (retired record) [DRSC19089], what was measured?
induced reporter light, run 1, well a: 1.19e5; induced reporter light, run 1, well b: 1.60e5; control promoter light, run 1, well a: 1.43e5; control promoter light, run 1, well b: 1.24e5; uninduced reporter light, run 1, well a: 9220

For CG18210 (retired record) [DRSC19795], how do the results read?
induced reporter light, run 1, well a: 1.62e5; induced reporter light, run 1, well b: 1.38e5; control promoter light, run 1, well a: 1.11e5; control promoter light, run 1, well b: 1.33e5; uninduced reporter light, run 1, well a: 9015

Which result is listed for Ttd14 [DRSC06632]?
induced reporter light, run 1, well a: 83250; induced reporter light, run 1, well b: 82845; control promoter light, run 1, well a: 1.56e5; control promoter light, run 1, well b: 1.80e5; uninduced reporter light, run 1, well a: 7005

For Ttd14 [DRSC06942], what was measured?
induced reporter light, run 1, well a: 1.23e5; induced reporter light, run 1, well b: 1.19e5; control promoter light, run 1, well a: 1.21e5; control promoter light, run 1, well b: 1.01e5; uninduced reporter light, run 1, well a: 8985

What did the screen give for Tsr1 [DRSC11821]?
induced reporter light, run 1, well a: 96750; induced reporter light, run 1, well b: 88250; control promoter light, run 1, well a: 65715; control promoter light, run 1, well b: 56515; uninduced reporter light, run 1, well a: 6370

For Ance-3 [DRSC02648], how do the results read?
induced reporter light, run 1, well a: 1.54e5; induced reporter light, run 1, well b: 1.93e5; control promoter light, run 1, well a: 1.88e5; control promoter light, run 1, well b: 1.74e5; uninduced reporter light, run 1, well a: 16065

For Ance-3 [DRSC02649], what does the deposit list?
induced reporter light, run 1, well a: 1.38e5; induced reporter light, run 1, well b: 1.57e5; control promoter light, run 1, well a: 1.68e5; control promoter light, run 1, well b: 1.78e5; uninduced reporter light, run 1, well a: 13670

What is on record for CG12909 [DRSC06224]?
induced reporter light, run 1, well a: 1.25e5; induced reporter light, run 1, well b: 1.36e5; control promoter light, run 1, well a: 1.39e5; control promoter light, run 1, well b: 1.59e5; uninduced reporter light, run 1, well a: 9870

What did the screen give for alphaTry [DRSC07577]?
induced reporter light, run 1, well a: 1.08e5; induced reporter light, run 1, well b: 87310; control promoter light, run 1, well a: 1.01e5; control promoter light, run 1, well b: 1.06e5; uninduced reporter light, run 1, well a: 8115

For CG15014 [DRSC08468], what was measured?
induced reporter light, run 1, well a: 2.22e5; induced reporter light, run 1, well b: 2.48e5; control promoter light, run 1, well a: 2.98e5; control promoter light, run 1, well b: 2.60e5; uninduced reporter light, run 1, well a: 12710

2 consecutive reagents already listed, quoted:
CG18210 (retired record) [DRSC19795]: induced reporter light, run 1, well a = 1.62e5; induced reporter light, run 1, well b = 1.38e5; control promoter light, run 1, well a = 1.11e5; control promoter light, run 1, well b = 1.33e5; uninduced reporter light, run 1, well a = 9015
Ttd14 [DRSC06632]: induced reporter light, run 1, well a = 83250; induced reporter light, run 1, well b = 82845; control promoter light, run 1, well a = 1.56e5; control promoter light, run 1, well b = 1.80e5; uninduced reporter light, run 1, well a = 7005

The list goes on:
For tral [DRSC09779], how do the results read?
induced reporter light, run 1, well a: 49860; induced reporter light, run 1, well b: 58480; control promoter light, run 1, well a: 24370; control promoter light, run 1, well b: 13450; uninduced reporter light, run 1, well a: 6870

What did the screen give for Rim2 [DRSC00073]?
induced reporter light, run 1, well a: 1.19e5; induced reporter light, run 1, well b: 1.14e5; control promoter light, run 1, well a: 1.44e5; control promoter light, run 1, well b: 1.58e5; uninduced reporter light, run 1, well a: 8730

With Rim2 [DRSC00520], what was measured?
induced reporter light, run 1, well a: 1.13e5; induced reporter light, run 1, well b: 1.52e5; control promoter light, run 1, well a: 1.27e5; control promoter light, run 1, well b: 1.30e5; uninduced reporter light, run 1, well a: 10685

What did the screen give for CG15891 + CG15892 [DRSC18095]?
induced reporter light, run 1, well a: 2.34e5; induced reporter light, run 1, well b: 2.35e5; control promoter light, run 1, well a: 3.21e5; control promoter light, run 1, well b: 3.29e5; uninduced reporter light, run 1, well a: 17950

With CG15891 + CG15892 [DRSC18096], what does the deposit list?
induced reporter light, run 1, well a: 1.54e5; induced reporter light, run 1, well b: 1.89e5; control promoter light, run 1, well a: 2.39e5; control promoter light, run 1, well b: 2.87e5; uninduced reporter light, run 1, well a: 11165

With CG17343 [DRSC02606], how do the results read?
induced reporter light, run 1, well a: 41620; induced reporter light, run 1, well b: 33240; control promoter light, run 1, well a: 33685; control promoter light, run 1, well b: 25370; uninduced reporter light, run 1, well a: 2760

How did the screen score Snx21 [DRSC00564]?
induced reporter light, run 1, well a: 1.79e5; induced reporter light, run 1, well b: 1.85e5; control promoter light, run 1, well a: 1.92e5; control promoter light, run 1, well b: 2.02e5; uninduced reporter light, run 1, well a: 17725

For Ir7f [DRSC18012], what was measured?
induced reporter light, run 1, well a: 1.59e5; induced reporter light, run 1, well b: 1.39e5; control promoter light, run 1, well a: 3.02e5; control promoter light, run 1, well b: 3.06e5; uninduced reporter light, run 1, well a: 11355

How did the screen score S-Lap5 [DRSC06732]?
induced reporter light, run 1, well a: 1.07e5; induced reporter light, run 1, well b: 1.11e5; control promoter light, run 1, well a: 1.18e5; control promoter light, run 1, well b: 1.25e5; uninduced reporter light, run 1, well a: 10235

Which result is listed for Or22a [DRSC00764]?
induced reporter light, run 1, well a: 1.17e5; induced reporter light, run 1, well b: 1.03e5; control promoter light, run 1, well a: 1.06e5; control promoter light, run 1, well b: 63105; uninduced reporter light, run 1, well a: 10900

For oys [DRSC05203], how do the results read?
induced reporter light, run 1, well a: 85585; induced reporter light, run 1, well b: 1.01e5; control promoter light, run 1, well a: 1.24e5; control promoter light, run 1, well b: 1.33e5; uninduced reporter light, run 1, well a: 4605

Which result is listed for oys [DRSC06751]?
induced reporter light, run 1, well a: 1.10e5; induced reporter light, run 1, well b: 1.34e5; control promoter light, run 1, well a: 97870; control promoter light, run 1, well b: 98620; uninduced reporter light, run 1, well a: 13120
